Results taken from PubChem BioAssay AID1347423 (Functional Genomics Laboratory (NCATS/FGL), 2020).
About 210 (0.4%) of roughly 52,000 sequences were called active.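 Rule for the calls: active = gene whose silencing raises cell survival under the drug, median off-target-corrected z-score across its silencing RNAs 2 or more; inactive = the rest.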 The list shows a part of the results.

Assay: Resistance to Poly (ADP-Ribose) Polymerase inhibitor: Gene Identification via Genome-wide siRNA Screen
Conditions: mouse BRCA2 R2336H ES cells, olaparib, CellTiter-Glo viability; hits give high values
Outline: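 Genome-wide siRNA screen (3 siRNAs/gene, 20 nM) in mouse ES cells carrying hypomorphic BRCA2 R2336H; olaparib 500 nM added 48 h post-transfection, CellTiter-Glo viability 72 h later. Normalized to plate-median negative control; MAD z-scores, gene median, seed-adjusted.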

| Sequence | z-score |
| --- | --- |
| CGUACCUUUUUUAUCCUAATT against 6030445D17Rik | inactive: 1.46 |
| GGCUCAAAGCCAAUCUGAATT against Recql4 | inactive: 1.31 |
| GGGUCAUGUAGGGAUAAAATT against D430026P16Rik | inactive: -0.63 |
| GGUGUAUCAGAGGCAGAUUTT against LOC278676 | inactive: -2.23 |
| GGUAAAUGGUUUAACUACGTT against B930062P21Rik | inactive: -0.384 |
| GGUCAUUUCUGGCAAGGUUTT against Adpn | inactive: 0.131 |
| GGGAGAAGAGAUUUUCUUGTT against 4932416N17Rik | inactive: 1.04 |
| CCUAGUAUAUCUGUGUUGUTT against Prkwnk1 | inactive: -0.586 |
| GCCACUCCUAUGAGUGUUATT against Pctk3 | inactive: 1.16 |
| CCAUUGAAGCCGAAUCAGATT against Slfn3 | inactive: -0.393 |
| GGAGGGAAGGCUGUGAAUATT against Syt7 | inactive: -1.69 |
| GGUUUGAUGUUAGACAACGTT against Trim34 | inactive: -0.72 |
| GCACAAAUACACCAAUCUCTT against Eif2b5 | inactive: 1.01 |
| GCUAUUGUUAUAGUAUCUGTT against Olfr688 | inactive: 0.696 |
| GCACUUAGACUAUUCCAGGTT against Tph2 | inactive: -0.375 |
| GGUGGAACUGACACAAGAATT against Gk2 | inactive: -0.555 |
| CCAUUCAGUCGAUUACAUUTT against Chd9 | inactive: 0.519 |
| CCAAUGCACAGGUCAUCACTT against Lbx1h | inactive: -1.54 |
| GGCUGCUGGGAAAAUGUGGTT against 1700001F22Rik | inactive: -0.485 |
| GGUUGUGCAGGGAAACUUATT against Ap3m2 | inactive: -1.9 |
| GGAAGAAUUUAAGAAGUUCTT against Grp58 | inactive: 0.847 |
| CCAUUCCCGCAUCCAUGUGTT against 4930488P06Rik | inactive: -1.65 |
| GGAUUUACUGGGAAAGGUUTT against V1rg12 | inactive: -2.57 |
| CGUAUUCCACUGCACUUUGTT against 2010321J07Rik | inactive: -0.428 |
| GCUCUGAUGGAACGCAUGATT against Sesn2 | inactive: 0.0971 |
| GGUUGUGACCGCCAUUUCUTT against 2610017G09Rik | inactive: 0.925 |

| Sequence | z-score |
| --- | --- |
| GGAGGAAGUUACAGAUGUGTT against Nog | inactive: -1.31 |
| GGAAGAGAAAGAGGUCAGATT against Aptx | inactive: 0.319 |
| GGAACCACACAUGUGUUAATT against Grik2 | inactive: 0.0594 |
| CCAAGUCUUGGAAAAUAACTT against 1700049M11Rik | inactive: -0.969 |
| GGAAGUGUAUAAUUUCCUGTT against Aco2 | inactive: 1.71 |
| CCAUGUUCAUCUUCUUGGGTT against Olfr76 | inactive: -1.14 |
| GGAAGUAAUUCACAACCAGTT against Pfdn1 | inactive: 1.14 |
| CCUUCGAGACCUGUUGUCUTT against 4832420M10 | inactive: 1.63 |
| CGUCAAUCACACAGAUAUUTT against Cd28 | inactive: -2.64 |
| GGUUCAAGCAGAACAAGAATT against 2810453I06Rik | inactive: 1.07 |
| GCUCCGAUUAACAAAGCCGTT against 2610034N24Rik | inactive: -1.43 |
| GCAGUGGAUGUAUUGUAAATT against 0610009B22Rik | inactive: -0.916 |
| CCACCAUUUACUGAGUUUATT against Scn2b | inactive: 0.795 |
| CGGUAUCAUAGCUUAGCACTT against Rab5a | inactive: -0.0583 |
| CGAUUAGAGGCACGUCAGUTT against Neurod1 | inactive: -1.82 |
| GGCUAAACUCACAACACUCTT against AI451557 | inactive: -0.178 |
| CGAACUGUUGAGAGACAAGTT against Trpv4 | inactive: 0.293 |
| GGAUGAUAAAGACAAAGUATT against Ppm1g | inactive: -0.0666 |
| GGCAGUGUUGACCAACAUGTT against BC021891 | inactive: -0.647 |
| GGUUUUCUUCAACAUCCUGTT against Bcs1l | inactive: 1.57 |
| GGGACAUACAUAUCCUCCUTT against 1300013D05Rik | inactive: 1.31 |
| GGUCACUCGGUUCACAAAATT against Bid | inactive: -2.03 |
| AGCCUUCUUACCACAAGUUTT against Nalp-epsilon | inactive: -0.106 |
| GGAGGUGGUUCACUAAAAATT against MGC58426 | inactive: 1.39 |
| GGAUUUGGCUAUAUCAACATT against Rfc2 | inactive: -3.02 |
| CGUGGGUAGGCUUAGAGAUTT against Brp16 | inactive: 1.55 |

Shown field by field: part of the list above
GGAAGUGUAUAAUUUCCUGTT against Aco2
  z-score: inactive: 1.71
CCUUCGAGACCUGUUGUCUTT against 4832420M10
  z-score: inactive: 1.63
GCAGUGGAUGUAUUGUAAATT against 0610009B22Rik
  z-score: inactive: -0.916
GGCUAAACUCACAACACUCTT against AI451557
  z-score: inactive: -0.178

Further entries follow.

| Sequence | z-score |
| --- | --- |
| GGAGGAGACUAAAGAAAAUTT against Myf6 | inactive: -1.24 |
| GGAGUUUGUAGCUGACAUCTT against BC057552 | inactive: -1.16 |
| GCUAUUAAGUUUACCCUAGTT against A730089K16Rik | inactive: -0.347 |
| CCAAUAUCACAUUUGCUUUTT against Crb1 | inactive: -0.206 |
| CGGCAUGAGCAGUUUAUAUTT against Col19a1 | inactive: -0.383 |
| GGAGACAAUUUAAAAGCAGTT against Cklfsf2b | inactive: -0.325 |
| CCUGGAAUAGACUGAAUUATT against C530043G21Rik | inactive: -1.31 |
| GCAAGAUUUAUCUUGUACCTT against Tex2 | inactive: 0.271 |
| GGGUGGAAGCUUUGAGAGATT against Bag2 | inactive: -1.2 |
| GGACUUUGUACGUUUCCUUTT against H1f0 | inactive: -1.47 |
| UUGUUCAAGAGCUAGAGAUTT against BC023754 | inactive: -0.0186 |
| GCUCUAUGGGAGAUUUGGATT against Itga2b | inactive: -0.203 |
| GGAACUUCCUGAGGAUAAGTT against 1700009P13Rik | inactive: 0.227 |
| GCAGAGGAGUUUUCAAUUUTT against Il17rb | inactive: 0.708 |
| GGACAAAGAGAAUGAUGGATT against Cdc25b | inactive: -0.502 |
| GCCCUUUCGCCUAUGGUUUTT against 4930427A07Rik | inactive: 0.752 |
| GGGAGAUAUCUUCUCAGUATT against 5830406J20Rik | inactive: -0.17 |
| GGACAAGAAAUACACCAUGTT against Gstm2 | inactive: 1.85 |
| GGCUCAUUUGCUGAGUGUGTT against Fscn2 | inactive: -0.0301 |
| GGCCUUUGUAUUUCCCAAGTT against Crp | inactive: 1.27 |
| GCCUAUGAAGGAACCACAUTT against Cdh2 | inactive: 0.551 |
| GGCUGAAACUAAGAACUCATT against Rdbp | inactive: 0.282 |
| GGAAGAAGAAAAGGAUUACTT against 4933407N01Rik | inactive: 2.01 |
| GGUCAUCACCUAUGCAGGGTT against Olfr1353 | inactive: -0.819 |
| GGAUGACAAGAAUACAAUGTT against Myo5a | inactive: 0.102 |
| CCUUGUUGUGACAAGCUUUTT against Rchy1 | inactive: 0.0482 |

| Sequence | z-score |
| --- | --- |
| UGGCGUGUCUCCUAUCCAUTT against Abl2 | inactive: 0.699 |
| GGAAAGAAAGACAAAGAAGTT against Cst6 | inactive: 0.604 |
| GCUUUUAGGUGUGCUGUCCTT against Psg28 | inactive: 1.67 |
| GGUGGCUCUGAAGAAAGUGTT against Cdk9 | inactive: -0.808 |
| GGUCAUCUGCUAAUAGAAUTT against Bcap29 | inactive: -0.293 |
| GAGUGGAACCAGAUUCCUCTT against Mcpr1 | inactive: 1.48 |
| GCAAGCAACCCAUAGUCUATT against Hoxc4 | inactive: -0.705 |
| GGAUGCUCAUGGACCUUUGTT against Olfr1122 | inactive: -1.34 |
| GCCUUCUGCCGUUAUUAAUTT against 9.83E+11 | inactive: 0.329 |
| GGAACCUAGUUUGUGGAUUTT against N28178 | inactive: -0.344 |
| GGCUAAGAAUGAGACUGGUTT against Abcg4 | inactive: -0.339 |
| GGCAGACAGAGGGUAAAAATT against Slc24a1 | inactive: -1.47 |
| GGCUACAAGUUGGUAAUCUTT against Pnkp | inactive: -2.03 |
| GGUCAAGAUCCGAAGCUACTT against Cntn2 | inactive: -1.28 |
| GGAACCUUCUCCAAAGCAATT against Rpgrip1 | inactive: -0.107 |
| GGCUGAGAACUUUUUAUUUTT against Dll3 | inactive: 1.52 |
| GGCAGGUCUUACGCAAAACTT against Csf1r | inactive: 0.472 |
| GCCUUGGACAAAAACACUATT against Ryk | inactive: -0.581 |
| GGUUAUUGAAGAUGAUAGATT against Sec24c | inactive: -0.171 |
| GGAUUCAGGGAACAGCAAUTT against Ntrk3 | inactive: 1.56 |
| GGCCAAGAAGGUACGUUUCTT against Dcx | inactive: 0.273 |
| GGGUUCAGGACAAGUUAAATT against Gpkow | inactive: -0.356 |
| GGCGGGAAAUGUCUUUAUCTT against Rpl22 | inactive: 0.333 |
| GCUCUGUAAACCAUGUAAGTT against Slc14a1 | inactive: 0.717 |
| GGCAUCAACUUCGUGCUAATT against Olfr541 | inactive: 1.01 |
| GCCAGCAUAGCAGAAAAUATT against Usp25 | inactive: -1.34 |

In a second layout: entries from further up.
Sequence	z-score
GCUCUGAUGGAACGCAUGATT against Sesn2	inactive: 0.0971
GGUUGUGACCGCCAUUUCUTT against 2610017G09Rik	inactive: 0.925
GGAGGAAGUUACAGAUGUGTT against Nog	inactive: -1.31
